Results: article PMC12412890

The chains behind the UniProt entries cited, without tags or fusion partners.
UniProt P57073: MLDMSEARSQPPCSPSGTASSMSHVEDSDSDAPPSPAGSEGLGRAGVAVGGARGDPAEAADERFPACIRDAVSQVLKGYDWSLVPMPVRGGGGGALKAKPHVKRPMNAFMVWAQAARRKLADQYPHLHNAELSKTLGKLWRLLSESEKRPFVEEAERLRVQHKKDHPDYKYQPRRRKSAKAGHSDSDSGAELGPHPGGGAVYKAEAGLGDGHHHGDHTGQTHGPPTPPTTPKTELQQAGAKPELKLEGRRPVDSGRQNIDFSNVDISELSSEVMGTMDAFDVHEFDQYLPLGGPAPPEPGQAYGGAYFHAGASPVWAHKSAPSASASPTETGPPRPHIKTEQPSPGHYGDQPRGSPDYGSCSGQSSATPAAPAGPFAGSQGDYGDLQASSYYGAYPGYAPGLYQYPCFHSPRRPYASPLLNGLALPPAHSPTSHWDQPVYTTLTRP
UniProt Q14258: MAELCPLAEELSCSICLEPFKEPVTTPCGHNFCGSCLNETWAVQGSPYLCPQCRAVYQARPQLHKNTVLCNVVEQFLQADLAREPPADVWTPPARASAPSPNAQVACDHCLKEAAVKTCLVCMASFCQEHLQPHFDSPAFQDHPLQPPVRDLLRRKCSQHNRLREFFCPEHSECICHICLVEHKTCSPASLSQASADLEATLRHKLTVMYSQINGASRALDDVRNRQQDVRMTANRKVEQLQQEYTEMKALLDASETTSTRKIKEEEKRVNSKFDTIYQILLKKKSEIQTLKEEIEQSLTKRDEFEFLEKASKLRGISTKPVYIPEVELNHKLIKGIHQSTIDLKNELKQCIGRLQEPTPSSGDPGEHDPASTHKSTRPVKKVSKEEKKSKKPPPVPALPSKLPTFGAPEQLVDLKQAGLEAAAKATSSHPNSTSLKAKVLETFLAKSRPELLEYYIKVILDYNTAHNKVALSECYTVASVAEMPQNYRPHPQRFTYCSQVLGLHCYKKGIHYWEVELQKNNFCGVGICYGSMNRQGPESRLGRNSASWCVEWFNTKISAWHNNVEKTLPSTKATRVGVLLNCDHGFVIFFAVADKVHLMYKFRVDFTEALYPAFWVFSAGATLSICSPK

Target: SOX8 (human (endogenous in ligament fibroblasts from patients)) (UniProt P57073)
Assay: affinity purification with mass spectrometry; antigen-antibody-bead complexes (Protein A + G magnetic beads) from protein lysates analysed by LC-MS/MS; cells and bait antibody not named for this experiment

## TRIM25 (from UniProt Q14258 1-630) (enzyme)
  binding: binds

No constants are given. Whether binding was seen depends on the method and setting. In cells and extracts the contact can be indirect. These calls come from enrichment with a bait or labelling near it, and not all partners need be listed.
